Assay results as given in paper PMC9631052.
Results are given in words; binding and its absence hold for the method and conditions named. Binding seen in cells or lysates may run through a third protein. Binding calls can cover weak binding; strength is not graded here.

Molecular target: T1, VAMP‐associated protein A (human (endogenous in HCCLM3‐BM4)) (UniProt Q9P0L0)
T1 sequence: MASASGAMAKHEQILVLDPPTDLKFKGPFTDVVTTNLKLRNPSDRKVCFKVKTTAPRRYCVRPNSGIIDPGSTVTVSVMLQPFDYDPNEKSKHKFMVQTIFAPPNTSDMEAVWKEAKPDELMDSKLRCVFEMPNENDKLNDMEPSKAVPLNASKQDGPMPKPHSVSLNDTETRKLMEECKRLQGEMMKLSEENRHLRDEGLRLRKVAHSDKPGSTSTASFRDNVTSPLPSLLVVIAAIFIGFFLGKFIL
Assay: co-IP; endogenous proteins in HCCLM3‐BM4 cells and in LOs derived from HCCLM3‐BM4 cells (Figure 1I, Figure S2A)

## αV‐integrin (human (endogenous in HCCLM3‐BM4))
  binding: binds
